No constants are given. Whether binding was seen depends on the method and setting. In cells and extracts the contact can be indirect. A result given as binding can be weak or reduced; the word gives no strength.
Target: FL-YFP (full length TbArl13 fused to YFP) (Trypanosoma brucei) (UniProt Q38B80)
Assay: co-IP; GFP-nAb beads incubated with lysates from cells expressing FL-YFP, DD-YFP, CD-YFP or YFP alone; native TbArl13 detected with anti-TbArl13 antibody in input, IP and unbound fractions

By UniProt entry, the sequences of proteins in these tests, tags left out. Where a name states a change or a piece, a line headed by the entry shows the natural chain unless it says otherwise.
UniProt Q38B80: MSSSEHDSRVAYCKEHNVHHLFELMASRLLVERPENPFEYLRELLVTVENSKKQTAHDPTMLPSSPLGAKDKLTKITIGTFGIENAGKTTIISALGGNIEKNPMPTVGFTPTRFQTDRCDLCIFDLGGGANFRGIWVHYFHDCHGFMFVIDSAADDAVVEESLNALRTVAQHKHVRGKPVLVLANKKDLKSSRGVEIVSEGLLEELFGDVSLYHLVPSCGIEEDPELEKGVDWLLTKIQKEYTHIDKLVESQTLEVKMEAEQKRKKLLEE

## endogenous TbArl13 (Trypanosoma brucei Arl13b ortholog, Tb927.10.5230) (from UniProt Q38B80)
  binding: binds
